In PMC7104407 one finds binding data, which are given here for 8 substances.

By UniProt entry, the sequences of proteins in these tests, tags left out. Where a name states a change or a piece, a line headed by the entry shows the natural chain unless it says otherwise.
UniProt O15379: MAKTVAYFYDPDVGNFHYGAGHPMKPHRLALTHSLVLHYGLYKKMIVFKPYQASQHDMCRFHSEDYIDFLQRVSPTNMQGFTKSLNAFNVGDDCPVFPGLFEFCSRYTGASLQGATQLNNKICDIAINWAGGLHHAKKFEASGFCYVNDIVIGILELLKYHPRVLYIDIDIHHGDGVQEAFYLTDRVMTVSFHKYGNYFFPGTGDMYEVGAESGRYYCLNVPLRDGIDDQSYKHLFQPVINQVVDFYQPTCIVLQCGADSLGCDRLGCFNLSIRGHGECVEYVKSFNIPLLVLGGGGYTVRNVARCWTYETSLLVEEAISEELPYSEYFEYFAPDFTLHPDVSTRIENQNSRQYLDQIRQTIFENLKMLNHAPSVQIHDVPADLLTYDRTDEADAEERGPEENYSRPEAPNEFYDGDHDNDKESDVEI
UniProt Q13547: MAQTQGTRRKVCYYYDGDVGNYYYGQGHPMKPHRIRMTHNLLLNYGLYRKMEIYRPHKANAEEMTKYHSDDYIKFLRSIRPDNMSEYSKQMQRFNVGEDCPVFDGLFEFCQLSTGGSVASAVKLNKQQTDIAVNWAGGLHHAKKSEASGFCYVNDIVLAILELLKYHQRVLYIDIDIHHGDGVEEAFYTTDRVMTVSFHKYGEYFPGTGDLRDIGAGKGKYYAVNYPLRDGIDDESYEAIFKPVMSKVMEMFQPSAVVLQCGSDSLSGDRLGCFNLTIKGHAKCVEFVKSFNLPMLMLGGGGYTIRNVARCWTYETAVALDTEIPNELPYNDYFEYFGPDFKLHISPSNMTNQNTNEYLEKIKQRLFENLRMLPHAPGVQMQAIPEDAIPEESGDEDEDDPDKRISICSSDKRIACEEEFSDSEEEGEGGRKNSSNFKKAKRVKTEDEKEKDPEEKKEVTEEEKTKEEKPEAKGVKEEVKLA
UniProt P50750: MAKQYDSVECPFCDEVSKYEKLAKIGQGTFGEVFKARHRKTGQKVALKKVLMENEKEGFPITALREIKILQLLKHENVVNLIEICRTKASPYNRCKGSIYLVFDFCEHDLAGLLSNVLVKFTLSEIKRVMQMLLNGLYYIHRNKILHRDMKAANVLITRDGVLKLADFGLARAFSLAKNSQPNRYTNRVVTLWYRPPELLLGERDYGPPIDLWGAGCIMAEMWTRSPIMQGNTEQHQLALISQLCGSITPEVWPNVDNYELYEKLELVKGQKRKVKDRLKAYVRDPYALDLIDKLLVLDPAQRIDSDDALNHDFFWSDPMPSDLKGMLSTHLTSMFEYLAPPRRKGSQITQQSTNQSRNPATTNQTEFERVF
UniProt Q96CJ1: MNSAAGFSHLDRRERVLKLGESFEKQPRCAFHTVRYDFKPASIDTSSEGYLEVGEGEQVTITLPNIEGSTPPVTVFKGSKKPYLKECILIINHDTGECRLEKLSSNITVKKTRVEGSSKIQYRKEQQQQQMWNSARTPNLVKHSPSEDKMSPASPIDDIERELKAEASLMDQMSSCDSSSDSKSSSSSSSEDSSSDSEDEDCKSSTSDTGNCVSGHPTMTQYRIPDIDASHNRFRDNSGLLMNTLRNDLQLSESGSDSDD

These are yes or no findings as the source states them, for the method shown. Binding seen in cells or lysates may run through a third protein. Some binding calls cover weakened binding; strength is not graded here.

Test [1] addresses ELL, ectopically expressed (human) (UniProt P55199). In words: co-IP; one partner ectopic, the other endogenous (SI Appendix, Fig. S3H and S3I).
Test [2] deals with DBC1, ectopically expressed (human) (UniProt Q8N163). The experiment in a line: co-IP; co-IP and Western blot of HDAC1-8 with ELL or with DBC1 in 293T cells. A general note: Immunoblotting shows a protein as a band on a membrane.
Test [3] addresses ELL, ectopically expressed (human) (UniProt P55199). Described as above.
Another test concerns the target FLAG-HA−DBC1 (human) (UniProt Q8N163). In words: co-IP; IP from nuclear extract of the FLAG-HA−DBC1 stable cell line, then immunoblotting.
The target of test [4] is ELL elongation-deficient domain (374 to 621) (human) (UniProt P55199). The experiment in a line: co-IP; indicated ELL domains with HDAC3 within mammalian cells.
In test [5] the target is ELL, ectopically expressed (human) (UniProt P55199). The description is as above.
The target in another test is ELL, endogenous (human) (UniProt P55199). The experiment in a line: co-IP; endogenous ELL and HDAC3, with overexpression of DBC1 (SI Appendix, Fig. S4K).
In test [6] the target is ELL, ectopically expressed (human) (UniProt P55199). In words: co-IP; IP of ELL from 293T cells with increasing expression of ectopic DBC1; blots for HDAC3 and DBC1.

“HDAC3, endogenous (from UniProt O15379 1-428) (enzyme)”: the binding entry in test [1] is “binds”.

For the substance “HDAC1 (from UniProt Q13547 1-482) (enzyme)”, the binding entry in test [2] and in test [3] was “binds” each time.

For EAF1 (from UniProt Q96JC9 1-268), in the test with FLAG-HA−DBC1 (human), the binding result was “binds”.

For the substance “HDAC5 (from UniProt Q9UQL6 1-1122) (enzyme)”, in test [3], the binding result is listed as “binds”.

Regarding CDK9 (from UniProt P50750 1-372), the binding result in the test with FLAG-HA−DBC1 (human) is given as “binds”.

As for “HDAC3 (co-IPs of Fig. 3C, Fig. 3D and SI Fig. S4K) (from UniProt O15379 1-428) (enzyme)”, the binding entry in test [4] is “no binding”; in test [5], “binds”; with ELL, endogenous (human) it was “binds”; in test [6], “binds”.

EAF2 (from UniProt Q96CJ1 1-260): the binding entry in the test with FLAG-HA−DBC1 (human) is “binds”.

Turning to “HDAC3, ectopically expressed (from UniProt O15379 1-428) (enzyme)”, the binding entry in test [2] and in test [3] was “binds” throughout.
